The series in a line: general procedure: Fmoc solid-phase peptide synthesis; 2-chlorotrityl chloride resin (Fmoc-Lys(Boc)-O-2-CTC resin); HATU or HBTU or TBTU with DIEA. The settings on record: late stage modification step.

“(2S,5S,8S,11S,14S,17R)-17-amino-5-(4-(4-((6-amino-2-(butylamino)-8-hydroxy-9H-purin-9-yl)methyl)benzamido)butyl)-2,8,11-tris(4-aminobutyl)-14-(hydroxymethyl)-4,7,10,13,16,24-hexaoxo-21-(palmitoyloxy)-23-oxa-19-thia-3,6,9,12,15-pentaaza” registered a step yield of 98%.

For the origin of these results see US9295732B2 (CAYLA, priority 2013, dated 2016).
